Data from the supplement of paper PMC10849652.
The list shows a part of the results.

Amino acid sequences for entries named in this document (tags omitted). A change or cut given only in a name is not applied to a line headed by its entry.
UniProt Q14687: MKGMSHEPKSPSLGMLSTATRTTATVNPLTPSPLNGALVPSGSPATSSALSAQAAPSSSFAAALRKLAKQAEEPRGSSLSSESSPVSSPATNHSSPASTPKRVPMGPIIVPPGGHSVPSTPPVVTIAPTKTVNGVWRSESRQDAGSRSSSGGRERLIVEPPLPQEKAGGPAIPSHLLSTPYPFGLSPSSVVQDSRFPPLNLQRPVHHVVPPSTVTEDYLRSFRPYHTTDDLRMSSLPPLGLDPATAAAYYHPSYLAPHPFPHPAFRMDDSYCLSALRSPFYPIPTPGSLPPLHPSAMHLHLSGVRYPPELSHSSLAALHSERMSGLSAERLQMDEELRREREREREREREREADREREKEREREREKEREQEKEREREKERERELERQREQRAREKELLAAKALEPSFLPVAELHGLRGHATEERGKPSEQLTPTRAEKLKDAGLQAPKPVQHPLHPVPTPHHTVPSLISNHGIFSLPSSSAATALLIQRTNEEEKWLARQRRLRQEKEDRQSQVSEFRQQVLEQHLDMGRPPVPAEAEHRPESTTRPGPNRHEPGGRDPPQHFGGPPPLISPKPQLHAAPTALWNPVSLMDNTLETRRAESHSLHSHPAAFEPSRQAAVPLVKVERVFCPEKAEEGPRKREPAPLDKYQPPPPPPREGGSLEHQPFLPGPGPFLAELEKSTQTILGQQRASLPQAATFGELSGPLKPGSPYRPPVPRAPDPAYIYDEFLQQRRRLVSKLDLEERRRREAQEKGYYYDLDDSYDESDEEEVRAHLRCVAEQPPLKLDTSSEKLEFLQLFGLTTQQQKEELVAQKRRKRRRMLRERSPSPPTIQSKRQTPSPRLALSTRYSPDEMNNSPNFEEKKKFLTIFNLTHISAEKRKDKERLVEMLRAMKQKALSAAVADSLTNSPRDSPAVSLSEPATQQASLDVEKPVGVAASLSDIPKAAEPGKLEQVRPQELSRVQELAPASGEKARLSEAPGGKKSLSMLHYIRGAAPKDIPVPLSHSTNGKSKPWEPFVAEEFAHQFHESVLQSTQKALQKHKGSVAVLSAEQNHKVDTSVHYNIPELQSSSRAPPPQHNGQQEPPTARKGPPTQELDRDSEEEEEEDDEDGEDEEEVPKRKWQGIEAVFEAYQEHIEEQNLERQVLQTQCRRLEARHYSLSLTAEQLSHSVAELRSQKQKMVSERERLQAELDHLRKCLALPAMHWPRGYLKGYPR
UniProt Q14161: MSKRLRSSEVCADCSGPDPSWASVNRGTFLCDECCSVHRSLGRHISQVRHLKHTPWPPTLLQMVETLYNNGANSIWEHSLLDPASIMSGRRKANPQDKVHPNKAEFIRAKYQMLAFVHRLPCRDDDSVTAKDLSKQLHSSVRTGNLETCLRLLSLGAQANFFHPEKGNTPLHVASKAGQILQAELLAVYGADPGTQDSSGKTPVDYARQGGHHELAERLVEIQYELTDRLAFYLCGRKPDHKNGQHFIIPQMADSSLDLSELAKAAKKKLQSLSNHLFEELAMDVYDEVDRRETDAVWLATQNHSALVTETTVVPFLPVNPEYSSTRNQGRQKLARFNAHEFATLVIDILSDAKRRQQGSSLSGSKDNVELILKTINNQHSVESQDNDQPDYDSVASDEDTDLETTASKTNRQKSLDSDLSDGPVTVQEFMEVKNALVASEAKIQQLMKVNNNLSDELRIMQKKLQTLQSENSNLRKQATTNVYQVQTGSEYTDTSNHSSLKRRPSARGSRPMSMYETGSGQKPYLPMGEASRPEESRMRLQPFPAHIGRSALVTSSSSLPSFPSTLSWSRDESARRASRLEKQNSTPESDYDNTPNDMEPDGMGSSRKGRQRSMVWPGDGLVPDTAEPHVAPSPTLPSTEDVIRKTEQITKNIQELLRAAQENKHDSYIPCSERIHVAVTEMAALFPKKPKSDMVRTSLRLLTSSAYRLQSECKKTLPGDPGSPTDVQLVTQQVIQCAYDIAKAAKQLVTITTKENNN
UniProt Q92805: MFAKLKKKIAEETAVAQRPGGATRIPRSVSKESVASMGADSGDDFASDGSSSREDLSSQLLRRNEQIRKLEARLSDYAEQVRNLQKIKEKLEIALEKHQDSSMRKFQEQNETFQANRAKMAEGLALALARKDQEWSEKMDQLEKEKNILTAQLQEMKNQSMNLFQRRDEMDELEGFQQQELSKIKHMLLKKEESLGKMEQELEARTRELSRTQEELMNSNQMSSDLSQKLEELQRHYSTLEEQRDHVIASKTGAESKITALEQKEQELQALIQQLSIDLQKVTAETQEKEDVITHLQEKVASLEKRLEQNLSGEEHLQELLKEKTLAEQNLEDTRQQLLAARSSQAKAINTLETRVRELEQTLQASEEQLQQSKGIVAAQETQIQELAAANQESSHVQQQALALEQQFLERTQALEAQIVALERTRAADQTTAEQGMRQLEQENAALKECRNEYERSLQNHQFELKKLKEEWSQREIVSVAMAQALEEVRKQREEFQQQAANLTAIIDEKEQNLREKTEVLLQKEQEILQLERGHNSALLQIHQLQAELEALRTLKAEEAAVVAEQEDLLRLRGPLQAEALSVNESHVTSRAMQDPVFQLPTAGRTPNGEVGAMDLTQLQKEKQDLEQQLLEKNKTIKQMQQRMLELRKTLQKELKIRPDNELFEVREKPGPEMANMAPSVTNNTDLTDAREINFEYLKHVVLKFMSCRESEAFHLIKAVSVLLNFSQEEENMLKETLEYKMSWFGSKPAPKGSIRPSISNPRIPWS
UniProt Q53GS7: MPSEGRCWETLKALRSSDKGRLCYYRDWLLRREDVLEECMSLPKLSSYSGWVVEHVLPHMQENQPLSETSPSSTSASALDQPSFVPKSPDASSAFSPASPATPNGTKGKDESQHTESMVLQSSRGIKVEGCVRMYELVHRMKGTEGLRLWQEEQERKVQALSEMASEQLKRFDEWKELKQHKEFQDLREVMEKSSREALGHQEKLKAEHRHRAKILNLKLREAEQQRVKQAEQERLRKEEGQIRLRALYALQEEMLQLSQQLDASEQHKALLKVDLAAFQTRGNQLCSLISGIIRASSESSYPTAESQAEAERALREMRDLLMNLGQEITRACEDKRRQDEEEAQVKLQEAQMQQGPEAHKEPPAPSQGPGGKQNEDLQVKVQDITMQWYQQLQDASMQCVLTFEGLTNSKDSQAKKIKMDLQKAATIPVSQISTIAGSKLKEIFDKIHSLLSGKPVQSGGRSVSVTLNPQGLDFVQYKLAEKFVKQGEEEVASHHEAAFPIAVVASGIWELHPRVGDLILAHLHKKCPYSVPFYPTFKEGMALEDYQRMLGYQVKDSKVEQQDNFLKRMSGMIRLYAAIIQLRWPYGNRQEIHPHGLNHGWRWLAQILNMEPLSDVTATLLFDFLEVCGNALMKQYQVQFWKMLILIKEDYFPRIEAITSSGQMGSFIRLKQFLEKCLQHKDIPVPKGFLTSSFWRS
UniProt Q9BQQ3: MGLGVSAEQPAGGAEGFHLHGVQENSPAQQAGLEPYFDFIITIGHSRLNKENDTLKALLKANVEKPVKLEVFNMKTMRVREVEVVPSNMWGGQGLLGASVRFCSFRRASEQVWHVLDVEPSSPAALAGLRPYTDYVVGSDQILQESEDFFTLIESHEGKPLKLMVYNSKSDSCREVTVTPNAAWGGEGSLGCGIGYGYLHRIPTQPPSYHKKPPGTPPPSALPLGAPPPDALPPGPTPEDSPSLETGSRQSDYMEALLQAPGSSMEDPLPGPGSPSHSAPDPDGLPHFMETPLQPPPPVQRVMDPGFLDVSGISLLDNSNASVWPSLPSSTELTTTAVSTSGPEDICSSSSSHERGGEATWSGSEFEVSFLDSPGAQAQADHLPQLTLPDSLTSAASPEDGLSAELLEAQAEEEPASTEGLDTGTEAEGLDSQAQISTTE
UniProt Q68CQ7: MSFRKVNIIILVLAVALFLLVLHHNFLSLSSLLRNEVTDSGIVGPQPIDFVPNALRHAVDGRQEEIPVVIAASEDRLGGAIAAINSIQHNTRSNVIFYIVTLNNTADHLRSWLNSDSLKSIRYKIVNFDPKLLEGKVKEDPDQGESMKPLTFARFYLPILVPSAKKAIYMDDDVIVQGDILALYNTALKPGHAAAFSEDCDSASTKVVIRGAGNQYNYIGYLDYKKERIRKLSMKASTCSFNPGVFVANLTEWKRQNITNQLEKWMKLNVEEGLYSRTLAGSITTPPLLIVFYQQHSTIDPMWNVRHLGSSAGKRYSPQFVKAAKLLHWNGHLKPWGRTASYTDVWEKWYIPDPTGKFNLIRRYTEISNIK
UniProt Q5T3I0: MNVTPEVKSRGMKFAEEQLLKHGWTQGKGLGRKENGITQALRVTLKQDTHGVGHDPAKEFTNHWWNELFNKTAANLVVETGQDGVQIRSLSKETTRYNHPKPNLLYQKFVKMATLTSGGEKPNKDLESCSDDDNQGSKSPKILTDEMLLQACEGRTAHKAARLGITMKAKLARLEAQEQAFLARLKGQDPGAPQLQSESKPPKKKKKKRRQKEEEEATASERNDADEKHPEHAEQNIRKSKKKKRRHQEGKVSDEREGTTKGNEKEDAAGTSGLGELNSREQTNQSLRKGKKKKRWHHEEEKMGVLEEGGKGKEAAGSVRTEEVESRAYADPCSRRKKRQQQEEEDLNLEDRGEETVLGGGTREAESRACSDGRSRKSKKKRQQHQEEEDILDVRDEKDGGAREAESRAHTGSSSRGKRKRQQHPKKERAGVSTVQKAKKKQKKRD
UniProt Q8TD30: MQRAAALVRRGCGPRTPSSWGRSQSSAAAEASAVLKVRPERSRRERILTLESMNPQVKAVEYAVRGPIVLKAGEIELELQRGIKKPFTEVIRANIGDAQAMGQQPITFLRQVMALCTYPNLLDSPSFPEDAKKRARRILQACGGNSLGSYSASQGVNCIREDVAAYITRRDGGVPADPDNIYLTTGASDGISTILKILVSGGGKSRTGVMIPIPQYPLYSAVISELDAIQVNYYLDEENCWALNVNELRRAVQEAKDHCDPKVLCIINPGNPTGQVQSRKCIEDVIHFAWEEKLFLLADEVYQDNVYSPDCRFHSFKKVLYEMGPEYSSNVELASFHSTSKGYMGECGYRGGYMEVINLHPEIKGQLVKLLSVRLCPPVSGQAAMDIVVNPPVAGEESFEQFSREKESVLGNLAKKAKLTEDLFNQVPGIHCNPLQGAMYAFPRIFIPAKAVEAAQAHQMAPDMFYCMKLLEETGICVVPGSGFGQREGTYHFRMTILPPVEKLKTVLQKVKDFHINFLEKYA
UniProt P43250, whole entry, looked up: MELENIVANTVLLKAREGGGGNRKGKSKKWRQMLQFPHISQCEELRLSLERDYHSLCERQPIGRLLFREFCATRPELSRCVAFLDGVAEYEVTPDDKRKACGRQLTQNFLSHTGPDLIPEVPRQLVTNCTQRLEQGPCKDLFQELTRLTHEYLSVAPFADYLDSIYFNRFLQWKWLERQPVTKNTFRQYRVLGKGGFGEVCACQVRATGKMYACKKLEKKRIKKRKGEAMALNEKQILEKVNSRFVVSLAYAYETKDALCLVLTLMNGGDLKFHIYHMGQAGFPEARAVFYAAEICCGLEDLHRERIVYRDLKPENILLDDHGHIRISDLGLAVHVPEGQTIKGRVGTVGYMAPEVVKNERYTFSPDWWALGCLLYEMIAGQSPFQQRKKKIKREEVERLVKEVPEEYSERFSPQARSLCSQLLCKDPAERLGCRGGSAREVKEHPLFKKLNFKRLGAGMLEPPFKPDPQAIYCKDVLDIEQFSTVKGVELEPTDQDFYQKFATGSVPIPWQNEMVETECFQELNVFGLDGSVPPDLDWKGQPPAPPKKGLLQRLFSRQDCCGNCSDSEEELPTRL
UniProt Q9UJJ9: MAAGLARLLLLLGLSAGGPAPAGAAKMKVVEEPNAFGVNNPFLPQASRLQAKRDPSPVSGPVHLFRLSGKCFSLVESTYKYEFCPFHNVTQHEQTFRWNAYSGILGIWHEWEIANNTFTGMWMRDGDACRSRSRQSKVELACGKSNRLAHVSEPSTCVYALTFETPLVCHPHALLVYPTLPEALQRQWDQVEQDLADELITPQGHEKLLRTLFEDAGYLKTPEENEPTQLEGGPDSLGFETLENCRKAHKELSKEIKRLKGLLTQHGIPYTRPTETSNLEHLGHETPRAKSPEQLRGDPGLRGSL
UniProt P22352, whole entry, looked up: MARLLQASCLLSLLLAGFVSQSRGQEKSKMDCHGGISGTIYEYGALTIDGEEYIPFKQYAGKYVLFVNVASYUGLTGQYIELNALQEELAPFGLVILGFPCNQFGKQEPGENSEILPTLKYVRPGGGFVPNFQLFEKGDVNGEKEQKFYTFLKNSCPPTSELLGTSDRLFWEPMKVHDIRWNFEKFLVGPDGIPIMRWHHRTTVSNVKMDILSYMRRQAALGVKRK

Compound: CN1CCN(CCOc2cc(OC3CCOCC3)c3c(Nc4c(Cl)ccc5c4OCO5)ncnc3c2)CC1 [saracatinib]
Test: log2 fold change, soluble protein after heating vs DMSO (PISA); higher = thermal stabilisation; K562 cells, 10 uM, 30 min; active = over 0.2 and 3.5 SD of the protein, either way, in both replicates (recomputed)
Method in brief: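 K562 cells at 2×10^6 cells/mL were exposed to 10 μM compound for 30 min, then aliquots were heated for 3 min across 48°C-58°C, pooled, and extracted in PBS containing 0.5% NP-40 at 4°C. The supernatant after 21,000xg for 90 min was taken as soluble protein and measured by TMTpro 16plex LC-MS/MS with channel sums equalised. Thermal stability is reported relative to control samples, with values from duplicates. Fold changes are given on a log2 scale.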

Target	log2 fold change
GPD1 (UniProt P21695)	inactive: -0.005
GPAA1 (UniProt E9PLG8)	inactive: -0.063
GSE1 (UniProt Q14687)	inactive: -0.077
GIT2 (UniProt Q14161)	inactive: -0.366
GK5 (UniProt Q6ZS86)	inactive: -0.058
GSDME (UniProt O60443)	inactive: 0.146
GOLGA1 (UniProt Q92805)	inactive: 0.036
GLE1 (UniProt Q53GS7)	inactive: -0.211
GORASP1 (UniProt Q9BQQ3)	inactive: -0.133
GNL3 (UniProt Q9BVP2)	inactive: -0.124
GOPC (UniProt Q9HD26)	inactive: -0.147
GLT8D1 (UniProt Q68CQ7)	inactive: -0.23
GPATCH4 isoform 3 (UniProt Q5T3I0)	inactive: -0.125
GPT2 (UniProt Q8TD30)	inactive: 0.071
GRK6 isoform 2 (UniProt P43250)	inactive: -0.208
GNPTG (UniProt Q9UJJ9)	inactive: 0.061
GOSR1 (UniProt E9PCW1)	inactive: 0.109
GOLGA8R (UniProt I6L899)	inactive: -0.126
GPX3 (UniProt P22352)	inactive: 0.057

A stretch from the list above, for reference:
Target	log2 fold change
GORASP1 (UniProt Q9BQQ3)	inactive: -0.133
GNL3 (UniProt Q9BVP2)	inactive: -0.124
